Assay results published in US20240082272A1, “COMPOSITIONS AND METHODS FOR TREATING WNT-DRIVEN CANCER” (The Regents of the University of Michigan, priority 2020, published 2024).

System: NCI-H295R
Assay: cells
Conditions: Homo sapiens, read-out: IC-50 (dose that induces a 50% reduction in viability)

- IC50: 62 µM
SMILES: CCN(c1cc(-c2ccc(CN3CCOCC3)cc2)cc(C(=O)NCc2c(C)cc(C)[nH]c2=O)c1C)C1CCOCC1 [EPZ-6438]
